The target in this experiment is T1, ELF2 (UniProt Q15723).
T1 sequence: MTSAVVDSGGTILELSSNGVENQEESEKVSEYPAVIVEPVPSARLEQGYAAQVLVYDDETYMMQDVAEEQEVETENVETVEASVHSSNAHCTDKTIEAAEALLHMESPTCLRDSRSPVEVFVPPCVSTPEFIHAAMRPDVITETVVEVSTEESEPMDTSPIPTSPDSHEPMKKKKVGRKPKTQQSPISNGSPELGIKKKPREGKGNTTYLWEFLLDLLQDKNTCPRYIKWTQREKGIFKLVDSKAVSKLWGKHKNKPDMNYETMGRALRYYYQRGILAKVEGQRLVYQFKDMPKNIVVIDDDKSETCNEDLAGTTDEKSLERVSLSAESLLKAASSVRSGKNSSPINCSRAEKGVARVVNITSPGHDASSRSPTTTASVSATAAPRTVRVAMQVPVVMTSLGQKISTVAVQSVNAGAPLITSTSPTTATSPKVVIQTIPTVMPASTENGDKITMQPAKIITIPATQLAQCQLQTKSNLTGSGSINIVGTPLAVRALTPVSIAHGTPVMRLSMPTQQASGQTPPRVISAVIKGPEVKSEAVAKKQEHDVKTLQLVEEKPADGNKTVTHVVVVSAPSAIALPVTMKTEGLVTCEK
Briefly: DAPPL (digital affinity profiling via proximity ligation, sequencing). The following applies: 10 mM Tris-HCl pH 7.5, 50 mM NaCl, 1 mM DTT, 4% glycerol, room temperature, 30 min; GST-TFs on glutathione beads, 16-mer random dsDNA library, 0.1% …; high values mean tight binding; double strand, one strand shown; scale: fold enrichment (6-mer frequency, TF over GST control).

This is one part of the list. The source does not settle which construct or isoform was used.

On to TCGCAT, for which the binding signal was 0.964.

Consider TCTAGA, for which the binding signal stood at 0.918. The result for GAAACT reads 1.31; that for GGAATA, 0.986.

Sequence TATACA yielded a binding signal of 1.35.

For the sequence TCGAGA, the binding signal came to 0.582. As for AGATAT, the binding signal stood at 1.02. Next, TCTGGC: 1.17; CTCGTC: 1.24; AAACTA: 1.29. Sequence TAAGGG returned a binding signal of 0.924. Regarding TTGGCA, the binding signal came to 1.12. Next, TAGTGT: 1.13; ACGAAG: 0.909. In turn, TGATTA displayed a binding signal of 1.04. The result for TAAGAC reads 0.883; that for AAACTC, 1.19. Next, CCGCTC: 1.49; GCTCAT: 1.22; CAAGAT: 1.04. Next, AAATCT: 1.29; ACCTAG: 0.914; TCCCAT: 1.36. In turn, TAGCAA came in with a binding signal of 1.17.

Consider TGTTTT, for which the binding signal was determined as 1.32.

In turn, AGGATT had a binding signal of 0.907.

Consider TTTCTA, for which the binding signal turned out to be 1.33.

In turn, TGAACA displayed a binding signal of 1.17.

As to ACTCCA, the binding signal came to 1.11. The result for TGGCAT reads 1.11. In turn, GCATTT showed a binding signal of 1.45. The result for TAGATT reads 1.18. The result for ACATTT reads 1.47. Next, ACTCGA: 1.22.

In turn, AAAATG registered a binding signal of 1.18. Next, CTAGAT: 1.07; GCGAAC: 0.903. Next, GATCCC: 1.15; ATCAAA: 1. Next, CTACCA: 1.22; CTTCGT: 1.25; TAAATT: 1.22. AACCGA: the binding signal was determined as 1. The sequence CCCCTC registered a binding signal of 1.23. The result for AAGAAG reads 1.08; that for CTAGCG, 1.09. Next, GGTAAA: 1.01; ATGCGA: 1.19; AATTCG: 1.27. Next, GAATTA: 1.1; GTTAAG: 1.02. TCCCAG showed a binding signal of 1.03. The result for GAAGAT reads 0.976; that for TTGCGA, 1.05; that for CTCACG, 1.22. The result for TTACGG reads 1.36; that for CCTCTG, 1.46. The result for TCCAAC reads 1.13; that for ATAAGA, 1.03; that for TAGGAT, 0.99.

TTTGAC returned a binding signal of 1.35. Consider TTTAAC, for which the binding signal stood at 1.16.

The sequence CCTCCG came in with a binding signal of 1.41. The result for AAGACT reads 1.09; that for AGATCT, 0.895.

The record behind these values is paper PMC7862700.
